In publication PMC12559739:
These are yes or no findings as the source states them, for the method shown. Binding seen in cells or lysates may run through a third protein. Some entries that bind do so weakly or less than the wild type. Where a sequence is shown, tags or fusion partners need not be part of it.

Target: StrepII-FLAG-tagged DCAF12 (human) (UniProt Q5T6F0)
Experiment: co-IP; HEK293T co-transfected with SF-DCAF12 and HA-tagged constructs, MLN4924 for the final 6 h; whole-cell lysates, Strep-TactinXT affinity purification or anti-HA immunoprecipitation; western blot

B1: HA-tagged MOV10 (protein, UniProt Q9HCE1 1-1003)
chain: MPSKFSCRQLREAGQCFESFLVVRGLDMETDRERLRTIYNRDFKISFGTPAPGFSSMLYGMKIANLAYVTKTRVRFFRLDRWADVRFPEKRRMKLGSDISKHHKSLLAKIFYDRAEYLHGKHGVDVEVQGPHEARDGQLLIRLDLNRKEVLTLRLRNGGTQSVTLTHLFPLCRTPQFAFYNEDQELPCPLGPGECYELHVHCKTSFVGYFPATVLWELLGPGESGSEGAGTFYIARFLAAVAHSPLAAQLKPMTPFKRTRITGNPVVTNRIEEGERPDRAKGYDLELSMALGTYYPPPRLRQLLPMLLQGTSIFTAPKEIAEIKAQLETALKWRNYEVKLRLLLHLEELQMEHDIRHYDLESVPMTWDPVDQNPRLLTLEVPGVTESRPSVLRGDHLFALLSSETHQEDPITYKGFVHKVELDRVKLSFSMSLLSRFVDGLTFKVNFTFNRQPLRVQHRALELTGRWLLWPMLFPVAPRDVPLLPSDVKLKLYDRSLESNPEQLQAMRHIVTGTTRPAPYIIFGPPGTGKTVTLVEAIKQVVKHLPKAHILACAPSNSGADLLCQRLRVHLPSSIYRLLAPSRDIRMVPEDIKPCCNWDAKKGEYVFPAKKKLQEYRVLITTLITAGRLVSAQFPIDHFTHIFIDEAGHCMEPESLVAIAGLMEVKETGDPGGQLVLAGDPRQLGPVLRSPLTQKHGLGYSLLERLLTYNSLYKKGPDGYDPQFITKLLRNYRSHPTILDIPNQLYYEGELQACADVVDRERFCRWAGLPRQGFPIIFHGVMGKDEREGNSPSFFNPEEAATVTSYLKLLLAPSSKKGKARLSPRSVGVISPYRKQVEKIRYCITKLDRELRGLDDIKDLKVGSVEEFQGQERSVILISTVRSSQSFVQLDLDFNLGFLKNPKRFNVAVTRAKALLIIVGNPLLLGHDPDWKVFLEFCKENGGYTGCPFPAKLDLQQGQNLLQGLSKLSPSTSGPHSHDYLPQEREGEGGLSLQVEPEWRNEL
binding: binds
